According to paper doi:10.1101/2024.06.23.600301:
No constants are given. Whether binding was seen depends on the method and setting. Some results given as binding are weak or reduced against the parent protein; the word gives no strength.

Sequences of proteins named here, by UniProt entry; tags and fusion partners are left off. Residues count along the entry.
UniProt P32781, residues 19-87: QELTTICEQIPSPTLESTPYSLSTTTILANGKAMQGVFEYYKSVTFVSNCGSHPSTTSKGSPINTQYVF

Target: T1, Sag1 (S. cerevisiae) (UniProt P20840)
T1 sequence: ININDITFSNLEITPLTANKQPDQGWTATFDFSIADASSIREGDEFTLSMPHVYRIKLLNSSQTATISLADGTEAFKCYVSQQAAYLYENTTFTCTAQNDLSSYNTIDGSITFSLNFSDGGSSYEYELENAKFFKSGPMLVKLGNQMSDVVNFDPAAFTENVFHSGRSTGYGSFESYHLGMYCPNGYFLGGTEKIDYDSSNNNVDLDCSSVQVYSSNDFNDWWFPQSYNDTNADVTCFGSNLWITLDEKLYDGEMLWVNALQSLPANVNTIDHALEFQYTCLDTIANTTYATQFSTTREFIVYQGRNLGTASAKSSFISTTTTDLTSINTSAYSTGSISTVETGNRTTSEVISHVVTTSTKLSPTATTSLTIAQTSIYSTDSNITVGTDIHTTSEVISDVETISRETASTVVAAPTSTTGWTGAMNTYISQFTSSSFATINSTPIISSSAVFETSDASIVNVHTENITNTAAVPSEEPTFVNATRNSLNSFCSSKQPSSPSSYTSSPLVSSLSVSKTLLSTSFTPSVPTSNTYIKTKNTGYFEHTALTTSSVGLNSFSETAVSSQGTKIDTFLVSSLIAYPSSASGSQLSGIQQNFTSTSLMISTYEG
Assay: two-colour cell-cell adhesion assay

Aga2 (from UniProt P32781 19-87) was tested, and the binding was “binds”.
